Assay results: patent US20260191815A1, “THIOACRYLAMIDE DERIVATIVES FOR USE IN THE PREVENTION OR TREATMENT OF LIVER FIBROSIS” (CMR CUREDIAB METABOLIC RESEARCH GMBH, priority 2022, published 2026)
Some of these results come from one statement about several compounds together.

Columns and labels:
[1] = system: vascular endothelial growth factor A (VEGFA) secretion by LX2 cells; assay: Olink Inflammation immunoassay of LX2 supernatants: VEGFA; type: cell-based, human; conditions: 10 μM + 5 ng/ml TGF-β1, LX2 cells; 63% to 65% printed for the two compounds
Description: (§1) The human hepatic stellate cell line LX2 was purchased from Merck. The cells were used up to passage ten and incubated under sterile conditions at 37° C. and 5% CO2. The cells were cultivated in medium containing Dulbecco's Modified Eagle's Medium with 4.5 g/l glucose (ThermoFisher), 4 mmol/l glutamine (ThermoFisher), 2% fetal bovine serum (FBS) (Merck), 100 U/ml penicillin and 100 μg/ml streptomycin (Merck). After 2 days, LX2 cells were starved for FBS for 24 h and then pretreated with 10 μM HK1 (Taros Chemicals GmbH & Co. KG) or 10 μM HK3 (Taros Chemicals GmbH & Co. KG) for 30 min. Subsequently, 5 ng/ml recombinant TGF-β1 (R&D Systems, Minneapolis, MN, USA) was added to the hepatic stellate cell cultures for 24 h. LX2 cells were also incubated with 5 ng/ml TGF-β1 alone as positive control for the hepatic stellate cell activation. […]
(§2) LX2 cells were cultured and treated as described in Example 1. […] This protein quantification method is based on a proximity extension assay technology, which combines a dual-recognition immunoassay using two matched antibodies labelled with DNA oligonucleotides, with a polymerase chain reaction (PCR) amplification and a microfluidic quantitative real-time PCR as readout. […]
(§3) Differences were analysed by one-way ANOVA followed by the Tukey method as correction for multiple testing.

[2] = system: leukaemia inhibitory factor (LIF) secretion by LX2 cells; assay: Olink Inflammation immunoassay of LX2 supernatants: LIF; type: cell-based, human; conditions: 10 μM + 5 ng/ml TGF-β1, LX2 cells; 82% to 84% printed for the two compounds
Description: as §1, §2, §3

| Structure (SMILES) | reduction of TGF-β1-induced secretion of VEGFA compared to TGF-β1-treated cells [1] | reduction of TGF-β1-induced secretion of LIF compared to TGF-β1-treated cells [2] |
| --- | --- | --- |
| Cc1cc(NC(=S)/C(C#N)=C(\O)C2CC2)ccc1F [HK1, 2-Cyano-3-cyclopropyl-N-(4-fluoro-3-methyl-phenyl)-3-hydroxy-thioacrylamide] | more than 60% | more than 80% |
| Cc1cc(NC(=S)/C(C#N)=C(\O)C2CC2)ccc1[N+](=O)[O-] [HK3, 2-Cyano-3-cyclopropyl-3-hydroxy-N-(3-methyl-4-nitro-phenyl)-thioacrylamide] | more than 60% | more than 80% |
